From publication doi:10.1101/2024.09.27.615457 (bioRxiv, 2024)

Target: T1, cLuc-bHLH107 (Arabidopsis) (UniProt Q9LET0)
T1 sequence: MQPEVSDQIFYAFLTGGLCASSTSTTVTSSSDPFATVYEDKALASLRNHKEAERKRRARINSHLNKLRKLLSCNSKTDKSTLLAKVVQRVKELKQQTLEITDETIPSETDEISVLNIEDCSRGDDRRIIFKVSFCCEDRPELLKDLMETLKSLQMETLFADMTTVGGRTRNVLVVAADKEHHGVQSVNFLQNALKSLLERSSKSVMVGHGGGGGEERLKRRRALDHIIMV
Assay: split reporter

binding: no binding
Substance: Actin-nLuc

These are yes or no findings as the source states them, for the method shown. In cells and extracts the contact can be indirect. Where a sequence is shown, tags or fusion partners need not be part of it.
